# Assay results reported in publication doi:10.1101/2023.12.13.571443.
# The chains behind the UniProt entries cited, without tags or fusion partners. Where a name states a change or a piece, a line headed by the entry shows the natural chain unless it says otherwise.
# UniProt Q9FIJ0: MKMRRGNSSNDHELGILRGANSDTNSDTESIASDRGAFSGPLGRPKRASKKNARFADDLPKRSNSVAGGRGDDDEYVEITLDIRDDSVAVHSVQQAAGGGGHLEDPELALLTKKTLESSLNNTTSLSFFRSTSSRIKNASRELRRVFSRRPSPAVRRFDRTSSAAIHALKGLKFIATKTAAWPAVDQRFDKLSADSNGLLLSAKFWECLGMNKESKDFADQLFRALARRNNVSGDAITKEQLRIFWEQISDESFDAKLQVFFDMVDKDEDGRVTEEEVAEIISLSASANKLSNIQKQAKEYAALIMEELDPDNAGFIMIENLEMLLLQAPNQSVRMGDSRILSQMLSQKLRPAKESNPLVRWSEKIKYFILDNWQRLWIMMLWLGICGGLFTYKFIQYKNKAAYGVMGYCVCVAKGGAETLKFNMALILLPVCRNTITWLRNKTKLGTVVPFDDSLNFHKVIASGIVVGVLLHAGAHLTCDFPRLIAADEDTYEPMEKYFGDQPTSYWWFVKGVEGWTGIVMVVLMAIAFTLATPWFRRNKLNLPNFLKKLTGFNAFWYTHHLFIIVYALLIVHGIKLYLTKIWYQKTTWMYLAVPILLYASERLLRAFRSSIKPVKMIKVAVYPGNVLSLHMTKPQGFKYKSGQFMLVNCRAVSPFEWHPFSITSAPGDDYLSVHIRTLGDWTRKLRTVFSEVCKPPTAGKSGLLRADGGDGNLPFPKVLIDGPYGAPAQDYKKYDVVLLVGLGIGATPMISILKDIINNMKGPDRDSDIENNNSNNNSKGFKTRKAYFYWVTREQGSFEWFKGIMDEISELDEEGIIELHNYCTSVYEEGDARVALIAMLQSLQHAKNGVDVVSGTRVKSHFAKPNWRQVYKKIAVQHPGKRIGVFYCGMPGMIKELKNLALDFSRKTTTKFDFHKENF
# UniProt Q9M2D8: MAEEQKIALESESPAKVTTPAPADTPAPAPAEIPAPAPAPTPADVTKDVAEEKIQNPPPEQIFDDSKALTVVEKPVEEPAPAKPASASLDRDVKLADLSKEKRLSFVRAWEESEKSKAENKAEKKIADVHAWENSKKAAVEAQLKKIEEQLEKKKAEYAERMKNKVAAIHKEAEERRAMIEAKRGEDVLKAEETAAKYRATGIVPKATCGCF
# UniProt Q9M8T0: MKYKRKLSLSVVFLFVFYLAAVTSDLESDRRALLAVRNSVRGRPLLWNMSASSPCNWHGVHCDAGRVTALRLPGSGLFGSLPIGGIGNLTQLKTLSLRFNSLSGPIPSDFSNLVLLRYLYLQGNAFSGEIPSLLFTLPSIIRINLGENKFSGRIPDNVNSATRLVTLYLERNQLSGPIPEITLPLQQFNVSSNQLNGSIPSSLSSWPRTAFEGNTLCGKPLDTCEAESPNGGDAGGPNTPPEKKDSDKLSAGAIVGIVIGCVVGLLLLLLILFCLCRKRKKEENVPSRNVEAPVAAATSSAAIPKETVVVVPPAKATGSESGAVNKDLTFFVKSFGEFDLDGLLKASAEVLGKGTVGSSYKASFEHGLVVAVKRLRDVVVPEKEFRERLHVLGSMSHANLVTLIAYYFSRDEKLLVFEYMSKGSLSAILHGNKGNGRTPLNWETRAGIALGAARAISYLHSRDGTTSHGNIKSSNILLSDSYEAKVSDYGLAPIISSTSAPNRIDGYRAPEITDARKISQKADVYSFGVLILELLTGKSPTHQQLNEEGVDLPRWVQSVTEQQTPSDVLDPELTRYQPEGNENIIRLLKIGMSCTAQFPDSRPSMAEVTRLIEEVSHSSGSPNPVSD
# B1: IMPAIRED OOMYCETE SUSCEPTIBILITY 1 (IOS1), endogenous (receptor, UniProt Q9C8I6 24-894)
# chain: QDQSGFISLDCGSPRETSFREKTTNITYISDANFINTGVGGSIKQGYRTQFQQQTWNLRSFPQGIRNCYTLNLTIGDEYLIRANFLHGGYDDKPSTQFELYLGPNLWSTVTTTNETEASIFEMIHILTTDRLQICLVKTGNATPFISALELRKLMNTTYLTRQGSLQTFIRADVGATVNQGYRYGIDVFDRVWTPYNFGNWSQISTNQSVNINNDYQPPEIAMVTASVPTDPDAAMNISLVGVERTVQFYVFMHFAEIQELKSNDTREFNIMYNNKHIYGPFRPLNFTTSSVFTPTEVVADANGQYIFSLQRTGNSTLPPLLNAMEIYSVNLLPQQETDRKEVDAMMNIKSAYGVNKIDWEGDPCVPLDYKWSGVNCTYVDNETPKIISLDLSTSGLTGEILEFISDLTSLEVLDLSNNSLTGSVPEFLANMETLKLINLSGNELNGSIPATLLDKERRGSITLSIEGNTGLCSSTSCATTKKKKKNTVIAPVAASLVSVFLIGAGIVTFLILKRKKRTKLGLNPNSGTGTTPLHSRSHHGFEPPVIAKNRKLTYIDVVKITNNFERVLGRGGFGVVYYGVLNNEPVAVKMLTESTALGYKQFKAEVELLLRVHHKDLTCLVGYCEEGDKMSLIYEFMANGDLKEHLSGKRGPSILTWEGRLRIAAESAQGLEYLHNGCKPQIVHRDIKTTNILLNEKFQAKLADFGLSRSFPLGTETHVSTIVAGTPGYLDPEYYRTNWLTEKSDVFSFGVVLLELVTNQPVIDMKREKSHIAEWVGLMLSRGDINSIVDPKLQGDFDPNTIWKVVETAMTCLNPSSSRRPTMTQVVMDLKECLNMEMARNMGSRMTDSTNDSSIELSMNFTTELNPGAR
# B2: AUTOINHIBITED Ca2+-ATPASE 10 (ACA10), endogenous (protein, UniProt Q9SZR1 1-1069)
# chain: MSGQFNNSPRGEDKDVEAGTSSFTEYEDSPFDIASTKNAPVERLRRWRQAALVLNASRRFRYTLDLKREEDKKQMLRKMRAHAQAIRAAHLFKAAASRVTGIASPLPTPGGGDFGIGQEQIVSISRDQNIGALQELGGVRGLSDLLKTNLEKGIHGDDDDILKRKSAFGSNTYPQKKGRSFWRFVWEASQDLTLIILIVAAVASLALGIKTEGIEKGWYDGISIAFAVLLVIVVTATSDYRQSLQFQNLNEEKRNIRLEVTRDGRRVEISIYDIVVGDVIPLNIGDQVPADGVLVAGHSLAVDESSMTGESKIVQKNSTKHPFLMSGCKVADGNGTMLVTGVGVNTEWGLLMASVSEDNGGETPLQVRLNGVATFIGIVGLTVAGVVLFVLVVRYFTGHTKNEQGGPQFIGGKTKFEHVLDDLVEIFTVAVTIVVVAVPEGLPLAVTLTLAYSMRKMMADKALVRRLSACETMGSATTICSDKTGTLTLNEMTVVECYAGLQKMDSPDSSSKLPSAFTSILVEGIAHNTTGSVFRSESGEIQVSGSPTERAILNWAIKLGMDFDALKSESSAVQFFPFNSEKKRGGVAVKSPDSSVHIHWKGAAEIVLGSCTHYMDESESFVDMSEDKMGGLKDAIDDMAARSLRCVAIAFRTFEADKIPTDEEQLSRWELPEDDLILLAIVGIKDPCRPGVKNSVLLCQQAGVKVRMVTGDNIQTAKAIALECGILASDSDASEPNLIEGKVFRSYSEEERDRICEEISVMGRSSPNDKLLLVQSLKRRGHVVAVTGDGTNDAPALHEADIGLAMGIQGTEVAKEKSDIIILDDNFESVVKVVRWGRSVYANIQKFIQFQLTVNVAALVINVVAAISAGEVPLTAVQLLWVNLIMDTLGALALATEPPTDHLMDRAPVGRREPLITNIMWRNLFIQAMYQVTVLLILNFRGISILHLKSKPNAERVKNTVIFNAFVICQVFNEFNARKPDEINIFRGVLRNHLFVGIISITIVLQVVIVEFLGTFASTTKLDWEMWLVCIGIGSISWPLAVIGKLIPVPETPVSQYFRINRWRRNSSG
# B3: SYNTAXIN OF PLANTS 71 (SYP71), endogenous (protein, UniProt Q9SF29 1-266)
# chain: MTVIDILTRVDSICKKYDKYDVDKQREANISGDDAFARLYGAFETQIETALEKAELVTKEKNRAAAVAMNAEIRRTKARLSEEVPKLQRLAVKRVKGLTTEELAARNDLVLALPARIEAIPDGTAGGPKSTSAWTPSSTTSRPDIKFDSDGRFDDDYFQESNESSQFRQEYEMRKIKQEQGLDMISEGLDALKNMASDMNEELDRQVPLMDEIDTKVDRATSDLKNTNVRLKDTVNQLRSSRNFCIDIVLLCIVLGIAAYLYNVLK
# Molecular target: FLS2-GFP (… SENSING2 fused to GFP) (Arabidopsis thaliana) (UniProt Q9FL28)
# Test: affinity purification with mass spectrometry
row,Molecule,binding
1,"RESPIRATORY BURST OXIDASE HOMOLOG D (RBOHD), endogenous (from UniProt Q9FIJ0 1-921) (enzyme)",binds
2,"REMORIN 1.2 (REM1.2), endogenous (from UniProt Q9M2D8)",binds
3,"QIAN SHOU KINASE1 (QSK1), endogenous (from UniProt Q9M8T0) (receptor)",binds
4,B1,binds
5,B2,binds
6,B3,binds

# These are yes or no findings as the source states them, for the method shown. In cells and extracts the contact can be indirect. Here binding means that the protein was enriched with, or labelled near, the bait; the list need not be complete. Sequences can lack the tags named with a protein.
